The values below come from publication PMC11095456.

This assay has as its target T1, ZEB2 MAPPIT construct (UniProt O60315).
T1 sequence: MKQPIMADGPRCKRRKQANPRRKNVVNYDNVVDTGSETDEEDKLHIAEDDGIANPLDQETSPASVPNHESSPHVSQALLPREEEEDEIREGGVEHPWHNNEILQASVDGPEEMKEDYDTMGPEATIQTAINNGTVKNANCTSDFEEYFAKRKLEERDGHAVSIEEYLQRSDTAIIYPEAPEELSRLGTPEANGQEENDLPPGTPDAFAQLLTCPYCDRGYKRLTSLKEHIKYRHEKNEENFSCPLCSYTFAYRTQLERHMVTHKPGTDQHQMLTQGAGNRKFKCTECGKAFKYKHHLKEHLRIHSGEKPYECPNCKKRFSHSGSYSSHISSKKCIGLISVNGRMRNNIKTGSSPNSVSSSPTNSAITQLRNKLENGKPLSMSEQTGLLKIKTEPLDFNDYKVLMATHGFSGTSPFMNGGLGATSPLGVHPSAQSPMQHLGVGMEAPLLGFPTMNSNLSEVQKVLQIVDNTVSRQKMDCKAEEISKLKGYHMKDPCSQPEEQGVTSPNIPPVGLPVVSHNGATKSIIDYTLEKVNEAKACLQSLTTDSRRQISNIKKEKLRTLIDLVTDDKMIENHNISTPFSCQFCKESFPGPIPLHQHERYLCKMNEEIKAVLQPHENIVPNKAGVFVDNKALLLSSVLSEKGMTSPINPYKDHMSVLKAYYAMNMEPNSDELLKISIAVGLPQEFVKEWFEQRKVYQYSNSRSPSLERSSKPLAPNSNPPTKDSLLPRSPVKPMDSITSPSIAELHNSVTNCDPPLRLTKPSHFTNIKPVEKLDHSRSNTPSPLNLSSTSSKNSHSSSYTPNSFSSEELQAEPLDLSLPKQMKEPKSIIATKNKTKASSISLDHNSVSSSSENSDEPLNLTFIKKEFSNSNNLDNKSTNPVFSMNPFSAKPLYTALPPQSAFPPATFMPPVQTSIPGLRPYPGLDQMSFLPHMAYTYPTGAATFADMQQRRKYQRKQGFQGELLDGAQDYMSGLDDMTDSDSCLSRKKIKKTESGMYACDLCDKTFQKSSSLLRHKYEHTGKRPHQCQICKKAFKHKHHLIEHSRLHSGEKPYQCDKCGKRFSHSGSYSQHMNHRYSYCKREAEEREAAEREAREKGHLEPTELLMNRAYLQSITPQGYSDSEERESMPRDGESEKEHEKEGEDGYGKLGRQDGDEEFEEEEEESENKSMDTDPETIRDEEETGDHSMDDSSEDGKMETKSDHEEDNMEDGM
Nature of the assay: two-hybrid; MAPPIT in HEK293T as in a6, with the 4× PLDLS inhibitor or the 4× PLASS control expressed as competitor.

These are yes or no findings as the source states them, for the method shown. Some binding calls cover weakened binding; strength is not graded here.

For the substance “CTBP2 MAPPIT prey, wild type (from UniProt P56545 1-445)”, the binding entry is recorded as “binds”.
